PubChem BioAssay AID1259254 | NCATS – 2017

- Purpose: 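Gene knock-downs that lead to re-replication, shown by excess G2 DNA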 (primary screen)
- Cell system: human HCT116 colorectal cancer cells
- Reagent: single siRNA against human genes
- Timing: 3 days
- Read-out: 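Nuclei stained with Hoechst and imaged; cell-cycle phase assigned by DNA content; G2 share scaled per plate, non-targeting siRNA 0%, GMNN siRNA 100%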
- Direction: G2 robust z-score and G2 cells, % of GMNN control: higher = more G2 cells, more excess DNA replication; raw share of cells in G2: higher = larger share of cells with G2 DNA content
- Rule for the call: 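Active siRNAs have a G2 robust z of 5 or more median absolute deviations over the median, which in these data means about 38% or higher of GMNN control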
In all, the deposit lists about 59,000 reagents; shown is an unselected part. About 1,550 of them (2.6%) were called active. 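G2 share is only a proxy for re-replication; each gene was hit by three separate siRNAs, and active genes were retested.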 Raw values are not corrected between plates. Reagents against one gene are numbered here. Not given: the amount of reagent.

gene symbol,siRNA no.,G2 robust z-score,"G2 cells, % of GMNN control",raw share of cells in G2 (%),Outcome
MYOG (GeneID 4656),1,-0.475,-0.374,5.22,inactive
MYOG (GeneID 4656),2,-0.896,-3.34,2.09,inactive
MYOG (GeneID 4656),3,-0.427,-0.0393,5.46,inactive
LINC01551 (GeneID 387978),1,0.79,8.53,6.69,inactive
LINC01551 (GeneID 387978),2,1.63,14.5,9.7,inactive
LINC01551 (GeneID 387978),3,1.24,11.7,9.65,inactive
FAM194C (GeneID 84077),1,-0.352,0.493,4.27,inactive
FAM194C (GeneID 84077),2,-0.533,-0.784,3.22,inactive
FAM194C (GeneID 84077),3,-0.261,1.13,2.75,inactive
ELAC2 (GeneID 60528),1,1.55,13.9,9.27,inactive
ELAC2 (GeneID 60528),2,0.309,5.14,6.17,inactive
ELAC2 (GeneID 60528),3,-0.216,1.45,6.25,inactive
VAPB (GeneID 9217),1,-0.386,0.248,3.61,inactive
VAPB (GeneID 9217),2,0.442,6.08,8.7,inactive
VAPB (GeneID 9217),3,0.354,5.46,5.63,inactive
DHX15 (GeneID 1665),1,3.81,29.8,15.6,inactive
DHX15 (GeneID 1665),2,0.872,9.1,8.32,inactive
DHX15 (GeneID 1665),3,-1.05,-4.4,2.58,inactive
RFLNB (GeneID 359845),1,-0.578,-1.1,3.61,inactive
RFLNB (GeneID 359845),2,0.751,8.25,6.87,inactive
RFLNB (GeneID 359845),3,0.175,4.2,5.88,inactive
PRRT4 (GeneID 401399),1,0.652,7.55,6.56,inactive
PRRT4 (GeneID 401399),2,-0.215,1.45,4.09,inactive
PRRT4 (GeneID 401399),3,-0.656,-1.65,4.11,inactive
ANXA1 (GeneID 301),1,0.31,5.15,5.91,inactive
ANXA1 (GeneID 301),2,0.0579,3.37,6.27,inactive
ANXA1 (GeneID 301),3,-0.172,1.76,5.32,inactive
PSMD9 (GeneID 5715),1,3.96,30.8,15.7,inactive
PSMD9 (GeneID 5715),2,3.22,25.6,16.9,inactive
PSMD9 (GeneID 5715),3,1.09,10.7,6.98,inactive
